Test results: article PMC8654301
Results are given in words; binding and its absence hold for the method and conditions named. In cells and extracts the contact can be indirect. Some binding calls cover weakened binding; strength is not graded here.

Molecular target: T1, TREM-2 (endogenous, CD4+ T cells and lung tissue) (human (endogenous in CD4+ T cells and lung tissue)) (UniProt Q9NZC2)
T1 sequence: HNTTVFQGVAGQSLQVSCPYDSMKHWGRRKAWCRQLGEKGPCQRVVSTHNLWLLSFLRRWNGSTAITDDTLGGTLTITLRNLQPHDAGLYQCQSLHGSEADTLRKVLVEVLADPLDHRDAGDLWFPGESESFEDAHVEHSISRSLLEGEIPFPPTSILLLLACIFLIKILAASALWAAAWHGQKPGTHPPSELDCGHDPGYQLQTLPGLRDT
Test: co-IP

## SARS-CoV-2 M protein on pseudovirus (VSV-M) (from UniProt P0DTC5 1-222)
  binding: binds
